Key:
[1] = general procedure: Fmoc solid-phase peptide synthesis; Fmoc-Phe-Wang resin (0.74 mmol/g); HBTU/HOBT, DIEA; conditions: whole synthesis, overall, scale 0.1 mmol
[2] = general procedure: Fmoc solid-phase peptide synthesis; Fmoc-Phe-Wang resin (0.74 mmol/g, 100-200 mesh); Fmoc-Gly-Wang resin (0.7 mmol/g, 100-200 mesh); HBTU/HOBT, DIEA; conditions: whole synthesis, scale of the general procedure 0.1 mmol
[3] = general procedure: Fmoc solid-phase peptide synthesis; Fmoc-Gly-Wang (0.7 mmol/g); HBTU/HOBT, DIEA; conditions: whole synthesis, overall, scale 0.1 mmol

## (F5)-Phe-(Gly-Pro-Hyp)10-Phe
[1]
  isolated yield: 32%
[2]
  isolated yield: 31%

## Ac-(Gly-Pro-Hyp)10-Gly
[3]
  isolated yield: 34%

## Gly-(Gly-Pro-Hyp)10-Gly
[2]
  isolated yield: 32%

## Leu-(Gly-Pro-Hyp)10-Phe
[2]
  isolated yield: 35%

## Phe-(Gly-Pro-Hyp)10-Phe
[2]
  isolated yield: 26%
